Test results published in PubChem BioAssay AID296 (DTP/NCI, 2004).
The list does not hold the whole screen: it is rich in T/C values a quarter to a half above the control, in often repeated tests (any T/C) and in doses without a T/C. Further doses and runs are listed elsewhere. T/C is the treated group as % of the vehicle group. Schedule codes are those of the source, read here as Q, the interval in days (D) or hours (H), X, the number of doses. Some T/C values are followed by the survivors on the day toxicity was checked, most often the fifth; without a count, all were alive then. Some doses have a count of surviving animals in place of a T/C: the source files T/C as zero there, which appears to mark a toxic dose or a test without result, not a measured value. Survivors were counted at the toxicity check, usually on the fifth day, unless a day is given; later deaths do not show. Some entries were tested several times; their values stand side by side, smallest first.

System: MX-1 breast xenograft, nude mice, tumor weight T/C
Assay: NCI In Vivo Anticancer Drug Screen. Data for tumor model Human Mammary Carcinoma MX-1 Xenograft (intrarenal inoculation) in NU/NU Swiss (nude) mice
Details: T/C endpoint: mean tumor weight change, higher T/C = larger tumour; for T/C: evaluated on day 11
Method in brief: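 Mice carrying the implanted tumor receive either test agent or vehicle. Tumor size or survival is then recorded for both groups. Results are stated as the treated-to-control quotient.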

[1] = dose: 200.0 mg/kg/injection, schedule: Q01DX010 (sc), vehicle: Klucel (hydroxypropylcellulose) (HPC)
[2] = dose: 300.0 mg/kg/injection, schedule: Q04DX003 (sc), vehicle: saline with Tween-80

## COc1ccc(C(N)=O)cc1N=NN(C)C
dose: 25.0 mg/kg/injection, schedule: Q01DX010 (sc), vehicle: Klucel (hydroxypropylcellulose) (HPC)
  T/C: 128 % of control
dose: 100.0 mg/kg/injection, schedule: Q01DX010 (sc), vehicle: Klucel (hydroxypropylcellulose) (HPC)
  survivor count: 0 of 3 on day 11
[1]
  survivor count: 0 of 3 on day 11

## C1OC1CO[C@@H]1CO[C@H]2[C@@H]1OC[C@H]2OCC1CO1 (stereo not given in full)
dose: 400.0 mg/kg/injection, schedule: Q01DX010 (sc), vehicle: saline with Tween-80
  survivor count: 0 of 3 on day 11

## CCOC(=O)/N=[N+](\[O-])c1ccccc1
dose: 75.0 mg/kg/injection, schedule: Q04DX003 (ip), vehicle: saline with Tween-80
  survivor count: 1 of 6 on day 11
dose: 150.0 mg/kg/injection, schedule: Q04DX003 (ip), vehicle: saline with Tween-80
  survivor count: 0 of 6 on day 11
dose: 300.0 mg/kg/injection, schedule: Q04DX003 (ip), vehicle: saline with Tween-80
  survivor count: 0 of 6 on day 11

## Cc1ccc2c(c1)C(=O)N(CC[P+](c1ccccc1)(c1ccccc1)c1ccccc1)C2=O
dose: 12.5 mg/kg/injection, schedule: Q04DX003 (sc), vehicle: Klucel (hydroxypropylcellulose) (HPC)
  T/C: 129 % of control
dose: 50.0 mg/kg/injection, schedule: Q04DX003 (sc), vehicle: Klucel (hydroxypropylcellulose) (HPC)
  T/C: 136 % of control
dose: 100.0 mg/kg/injection, schedule: Q04DX003 (sc), vehicle: Klucel (hydroxypropylcellulose) (HPC)
  survivor count: 1 of 6 on day 11

## O=[n+]1c2ccccc2n([O-])c2ccccc21.[Cl][Ni][Cl]
dose: 37.5 mg/kg/injection, schedule: Q04DX003 (sc), vehicle: saline with Tween-80
  T/C: 127 % of control
[2]
  survivor count: 0 of 6 on day 11

## O=C1OC(C(O)CO)C(O)=C1O (stereo not given)
dose: 800.0 mg/kg/injection, schedule: Q01DX010 (sc), vehicle: saline
  T/C: 130 % of control

## Cc1c2cc[n+](C)cc2c(C)c2c1[nH]c1ccc(O)cc12
dose: 3.0 mg/kg/injection, schedule: Q04DX003 (sc), vehicle: water
  T/C: 135 % of control [4 of 6 alive on day 11]
dose: 12.0 mg/kg/injection, schedule: Q04DX003 (sc), vehicle: water
  survivor count: 1 of 6 on day 11

## CN(C(=S)S(=O)(=O)C12CC3CC(CC(C3)C1)C2)c1ccccc1
dose: 400.0 mg/kg/injection, schedule: Q04DX003 (sc), vehicle: Klucel (hydroxypropylcellulose) (HPC)
  T/C: 149 % of control
dose: 1600.0 mg/kg/injection, schedule: Q04DX003 (sc), vehicle: Klucel (hydroxypropylcellulose) (HPC)
  T/C: 148 % of control

## C[N+](C)(C)c1cc2c(nn1)Nc1ccccc1S2
dose: 50.0 mg/kg/injection, schedule: Q01DX010 (sc), vehicle: Klucel (hydroxypropylcellulose) (HPC)
  T/C: 144 % of control
[1]
  survivor count: 0 of 3 on day 11 and 0 of 6 on day 11

## CCN(C)N=Nc1ccc(C(N)=O)cc1
dose: 600.0 mg/kg/injection, schedule: Q04DX003 (sc), vehicle: Klucel (hydroxypropylcellulose) (HPC)
  survivor count: 0 of 6 on day 11
dose: 1200.0 mg/kg/injection, schedule: Q04DX003 (sc), vehicle: Klucel (hydroxypropylcellulose) (HPC)
  survivor count: 0 of 6 on day 11

## CC1(C)N=C(N)N=C(N)N1c1ccc(CCCCc2ccc(S(=O)(=O)F)cc2Cl)c(Cl)c1
dose: 100.0 mg/kg/injection, schedule: Q01DX010 (sc), vehicle: suspension in saline
  survivor count: 0 of 3 on day 11

## O=C[C@@H](CO)O[C@H](C=O)n1cnc2c(=O)[nH]cnc21
[2]
  T/C: 125 % of control

## COC(=O)C[C@](O)(CCCC(C)(C)O)C(=O)O[C@@H]1C(OC)=C[C@]23CCCN2CCc2cc4c(cc2[C@H]13)OCO4
dose: 2.0 mg/kg/injection, schedule: Q01DX010 (sc), vehicle: saline
  survivor count: 1 of 3 on day 11
dose: 4.0 mg/kg/injection, schedule: Q01DX010 (sc), vehicle: saline
  survivor count: 0 of 3 on day 11
